Consider 2 compounds from PMC9083330, “An Efficient Evaluation System Accelerates α-Helical Antimicrobial Peptide Discovery and Its Application to Global Human Genome Mining” (Frontiers in Microbiology, 2022).

Values after ≈ are worked out from the molar mass of the structure shown.

The test system of assay [1] is Pseudomonas aeruginosa (CMCC10104). Briefly: MIC, broth microdilution. The following applies: CMCC10104, read-out: MIC, 4. P. aeruginosa (CMCC10104). Background: In broth dilution the organism is exposed to a series of concentrations in liquid medium.
In assay [2] the test system is Enterococcus faecium (VRE204) (vancomycin-resistant strain). Kind of assay: MIC, broth microdilution. The following applies: read-out: MIC, 3. E. faecium (VRE204) (vancomycin-resistant strain).

As a reminder, the MIC is the smallest concentration in the dilution series that meets the test's criterion for growth inhibition. `C[C@H]1COc2c(N3CCN(C)CC3)c(F)cc3c(=O)c(C(=O)O)cn1c23` [Levofloxacin]: the MIC in assay [1] was determined as 0.5 µg/mL (≈ 1.38 µM).

Take `CN[C@H](CC(C)C)C(=O)N[C@H]1C(=O)N[C@@H](CC(N)=O)C(=O)N[C@H]2C(=O)N[C@H]3C(=O)N[C@H](C(=O)N[C@H](C(=O)O)c4cc(O)cc(O)c4-c4cc3ccc4O)[C@H](O)c3ccc(c(Cl)c3)Oc3cc2cc(c3O[C@@H]2O[C@H](CO)[C@@H](O)[C@H](O)[C@H]2O[C@H]2C[C@](C)(N)[C@H](O)[C@H](C)O2)Oc2ccc(cc2Cl)[C@H]1O` [Vancomycin]: in assay [2], the MIC was found to be 32 µg/mL (≈ 22.1 µM).
